Results as given in paper PMC3484135.
The exact form of at least one protein or probe is not confirmed. At least one verdict rests on a figure or table, not on a statement of the authors.

System: E47 HLH
Assay: EMSA
Details: E47 alone, ID2/ID3 assayed as inhibitors of this complex; proteins in 50 mM Tris, 300 mM NaCl, pH 8.0; binding buffer 20 mM Tris pH 8, 50 mM KCl, 1 mM DTT, 1 mM EDTA, 10% glycerol, 0.1 mg/mL BSA; 20 ul, room temperature; recombinant protein; protein details: His-MBP, removed by TEV; label: 5'-Cy5

“GGATCCCCCCAACACCTGCTGCCTGA (double strand) [E-box probe (MCK enhancer type)]”: binds.
